The experiment addresses FLAG-AF9 (human (cDNA from HEK293T cells)) (UniProt P42568). Description: affinity purification with mass spectrometry; FLAG antibody beads incubated with FLAG-AF9 cell lysate (MDA-MB-231) for 4 h; SDS-PAGE, trypsin digestion, LC-MS/MS; compared with FLAG control.

Chains of the proteins cited; added tags and fusions are not shown.
UniProt P42568: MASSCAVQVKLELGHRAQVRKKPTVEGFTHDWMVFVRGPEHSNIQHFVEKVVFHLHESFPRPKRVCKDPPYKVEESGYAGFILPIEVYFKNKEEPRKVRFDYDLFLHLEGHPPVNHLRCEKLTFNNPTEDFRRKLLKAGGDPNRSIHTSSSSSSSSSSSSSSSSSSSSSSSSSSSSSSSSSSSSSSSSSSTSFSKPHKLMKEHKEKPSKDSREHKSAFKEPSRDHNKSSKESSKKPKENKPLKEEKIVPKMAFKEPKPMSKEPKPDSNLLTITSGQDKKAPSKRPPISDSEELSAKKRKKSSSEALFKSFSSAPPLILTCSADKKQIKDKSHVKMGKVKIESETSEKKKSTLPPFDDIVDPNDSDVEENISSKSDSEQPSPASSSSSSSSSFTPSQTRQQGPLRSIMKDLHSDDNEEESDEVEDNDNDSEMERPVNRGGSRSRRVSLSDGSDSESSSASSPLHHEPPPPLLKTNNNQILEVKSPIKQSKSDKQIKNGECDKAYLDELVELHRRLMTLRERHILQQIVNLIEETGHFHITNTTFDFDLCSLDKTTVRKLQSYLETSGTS
UniProt O95863: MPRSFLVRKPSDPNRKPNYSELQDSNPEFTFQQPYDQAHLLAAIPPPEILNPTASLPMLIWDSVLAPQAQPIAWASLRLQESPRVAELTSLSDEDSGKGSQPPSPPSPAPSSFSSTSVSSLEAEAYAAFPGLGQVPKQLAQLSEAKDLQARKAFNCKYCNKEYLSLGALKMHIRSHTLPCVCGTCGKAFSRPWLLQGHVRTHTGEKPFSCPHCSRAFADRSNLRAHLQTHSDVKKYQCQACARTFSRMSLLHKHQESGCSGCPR

No constants are given. Whether binding was seen depends on the method and setting. In cells and extracts the contact can be indirect. Here binding means that the protein was enriched with, or labelled near, the bait; the list need not be complete.

Regarding Snail (from UniProt O95863 1-264), the binding result is “binds”.

The values above are taken from publication PMC7934584.
